No signal at the amounts used counts as a negative. At least one verdict was read from the data and is not stated in words by the source. Tags and fusion partners may be left off the protein sequences shown.
Target: T1, MR DBD (Homo sapiens) (UniProt P08235)
T1 sequence (looked up): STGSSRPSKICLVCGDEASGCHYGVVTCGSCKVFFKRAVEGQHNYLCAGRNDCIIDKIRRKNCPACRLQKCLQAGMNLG
Experiment: fluorescence polarization
Settings: FP: 10 nM 6-FAM dsDNA, 100 mM NaCl, 20 mM Tris-HCl pH 7.4, 5% glycerol, temperature not stated, recombinant protein, residues 593-671, protein details: N-terminal 6xHis with TEV site

Sequence	binding result (label: 5'-FAM on strand 1)	binding result (label: FAM (position not given))
AATCGTGGAATTTCCTCTG (double strand) [IL8 kBRE]	no binding	–
CCCTGGGAATTTCCTGATA (double strand) [PLAU kBRE]	no binding	–
GAGTGGGAATTTCCACTCA (double strand) [CCL2 kBRE]	–	no binding

Source: article PMC5889392, “Cryptic glucocorticoid receptor-binding sites pervade genomic NF-κB response elements”
